Experimental data: PubChem BioAssay AID652259 (Drosophila RNAi Screening Center, 2013)

- Test: 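Knock-downs that push a Wingless-driven reporter up or down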 (primary screen)
- Cell system: Drosophila clone 8 imaginal disc epithelial cells
- Knock-down reagent: long dsRNA against Drosophila genes
- Treatment: pathway stimulated by co-transfected Wingless expression plasmid
- Measured: 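Dual luciferase reads per well after Wingless plasmid stimulation: reporter firefly light and Renilla control light; activity is firefly divided by Renilla, a ratio not deposited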
- Direction: firefly reporter light: higher = more Wg reporter light, before normalisation; Renilla control light: higher = more transfected or surviving cells
- Rule for the call: 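Strong candidates differ from their plate mean by at least two out of four per-plate statistical tests; weak candidates meet just one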
- Meaning of the calls: active = candidate regulator (raises or lowers reporter); inactive = not a candidate
The screen tested about 22,000 reagents; shown is an unselected part of those that have a named target and a result. Of all reagents, 233 (1.1%) are marked active. 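Light values are raw, unnormalised plate reads; the ratio scores behind the reporter calls were not deposited.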 Unmarked entries are inactive. Reagents against one gene are numbered here. A plus sign joins genes that one reagent is predicted to hit. Not given: the amount of reagent, the time to read-out, the dose of the treatment.

no.	target gene	dsRNA no.	reporter change call, replicate 1	firefly reporter light, replicate 1	firefly reporter light, replicate 2	Renilla control light, replicate 1	Renilla control light, replicate 2
1	CG6424	1		14245		3448	
2	Cog1 (Component of oligomeric golgi complex 1)	1		8145		2633	
3	CG31406	1		3056		1541	
4	Dys (Dystrophin)	1		4612		2872	
5	Dys (Dystrophin)	2		4761		1814	
6	Dys (Dystrophin)	3		15236		4428	
7	Dys (Dystrophin)	4		18000		2989	
8	Dys (Dystrophin)	5		14375		3291	
9	Dys (Dystrophin)	6		15365		3737	
10	Dys (Dystrophin)	7		13842		2838	
11	Taf7 (TBP-associated factor 7)	1	Wg reporter activity raised (active)	34483		2956	
12	bcd + CR14578	1		15908		8833	
13	CG5390	1		2274	7833	781	4020
14	Grx1t (Glutaredoxin 1, testis-specific)	1		2826	5714	624	2282
15	CG42583	1		7.46e5	7.72e5	3.77e5	2.24e5
16	Mis12	1		1652	4493	1607	2561
17	Phs (Phaser)	1		5728		2690	
18	Smug	1		14803		4583	
19	CG15452	1		16692		7328	
20	CG43341	1		17650		8656	
21	CG3690	1		24728		20899	
22	CG3690	2		20845		15859	
23	CG8958	1		21900		10240	
24	hang (hangover)	1	Wg reporter activity raised (active)	3861	9899	422	1094
25	hang (hangover)	2		17387		3532	
26	Proc (Proctolin)	1		1795	6272	169	857
27	Zip48C (Zinc/iron regulated transporter-related protein 48C)	1		8427		2384	
28	CG7886	1		7941		1489	
29	CG31145	1		2683		1255	
30	CG31145	2		19013		14492	
31	CG31145	3		19623		7989	
32	CG31145	4		22892		12857	

An excerpt from above, limited to “firefly reporter light, replicate 1”:
Dys (Dystrophin) #2: 4761
Dys (Dystrophin) #3: 15236
Dys (Dystrophin) #4: 18000
Dys (Dystrophin) #5: 14375
Dys (Dystrophin) #6: 15365
